# Measured values published in the supplement of paper PMC3334620.
# In all, about 33,000 sequences were measured (“E-score (-0.5 to 0.5)”: median about -0.016, highest 2% from about 0.3 on). The list shows a part of the results.
# Molecular target: T1, Yer184c (UniProt P39961)
# T1 sequence: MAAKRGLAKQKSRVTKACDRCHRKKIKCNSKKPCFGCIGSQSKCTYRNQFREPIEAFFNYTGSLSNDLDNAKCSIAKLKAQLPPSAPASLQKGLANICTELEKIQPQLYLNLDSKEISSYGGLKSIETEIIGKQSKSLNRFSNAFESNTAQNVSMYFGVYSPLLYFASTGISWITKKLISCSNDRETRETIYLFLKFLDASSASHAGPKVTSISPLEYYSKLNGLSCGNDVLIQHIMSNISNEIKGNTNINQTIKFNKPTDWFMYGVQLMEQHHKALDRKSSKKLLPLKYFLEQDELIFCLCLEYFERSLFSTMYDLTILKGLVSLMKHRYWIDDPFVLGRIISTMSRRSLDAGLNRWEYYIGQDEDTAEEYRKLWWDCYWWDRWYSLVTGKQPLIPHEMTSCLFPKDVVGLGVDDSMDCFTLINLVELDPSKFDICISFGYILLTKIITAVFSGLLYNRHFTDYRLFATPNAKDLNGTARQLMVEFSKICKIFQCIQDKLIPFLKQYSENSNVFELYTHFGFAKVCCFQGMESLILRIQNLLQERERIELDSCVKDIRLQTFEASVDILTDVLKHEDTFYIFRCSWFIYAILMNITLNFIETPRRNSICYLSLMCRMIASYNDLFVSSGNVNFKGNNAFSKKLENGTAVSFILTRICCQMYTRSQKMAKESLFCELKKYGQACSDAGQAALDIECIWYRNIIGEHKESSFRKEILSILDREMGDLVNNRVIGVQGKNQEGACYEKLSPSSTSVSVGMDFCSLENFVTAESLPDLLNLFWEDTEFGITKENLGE
# Assay: PBM E-score (8-mer binding enrichment) (E-score (-0.5 to 0.5)); higher = stronger / more preferred TF binding
# Details: protein concentration: 100 nM; construct: GST-full length
# Experimental: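 Universal 'all 10-mer' protein binding microarrays (Agilent AMADID 015681) probed with GST-tagged S. cerevisiae TFs (full-length or DBD) made by in vitro transcription/translation (PURExpress), about 100-200 nM. Bound TF was detected with fluorescent anti-GST. Each ungapped 8-mer (which stands for itself and its reverse complement) is scored by the PBM enrichment score (E-score), a modified Wilcoxon-Mann-Whitney statistic from -0.5 to +0.5, computed with the Universal PBM Analysis Suite. Scale: above 0.35 generally sequence-specific binding.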
row,Sequence,PBM E-score
1,CTGCGGAA,0.0709
2,GATATTCA,0.0204
3,CAAGCATA,0.026
4,AGGGGTAT,-0.33
5,CTATAATA,0.145
6,GTCGCGGA,0.056
7,AACATAGC,-0.101
8,GCATAGGC,-0.26
9,CACATCCA,-0.0038
10,CCAAATAC,-0.123
11,ACAACACT,0.143
12,ACGCCGTA,0.0437
13,GGATGTTA,0.0131
14,CTCGGAAA,0.289
15,CTTGCAGA,-0.0454
16,CCCTCTTA,-0.157
17,AAGGCTTG,-0.151
18,CAACGTAC,-0.0763
19,CGATAGCG,-0.128
20,CCAGCGGA,-0.238
21,ACTAAATA,0.221
22,ACGCATGC,0.215

row,Sequence,PBM E-score
1,ACCGTCGT,0.105
2,CATCTTCC,0.0831
3,ACATTGGC,-0.134
4,CACCGGAC,0.268
5,CGGGCGAA,0.107
6,GGGCGAAC,0.0696
7,GTCGGTTA,0.149
8,AAGCGAAC,-0.0829
9,CGCGCTCA,0.0286
10,ATACGACC,-0.182
11,CTATTTCA,0.251
12,CTGGGCTA,-0.26
13,CGCCAGGA,-0.0944
14,AGCGACGG,0.0874
15,ACGAGCAG,-0.0845
16,AAATCATA,0.187
17,AATGCATT,0.121
18,ATCCAACG,-0.0561
19,GACGGGAC,-0.125
20,GAATCCAA,0.0377
21,AAGGAAAC,0.0646
22,ACCCAGTG,-0.306

# 6 entries picked at random from the list so far:
row,Sequence,PBM E-score
4,CACCGGAC,0.268
21,ACTAAATA,0.221
10,ATACGACC,-0.182
19,CGATAGCG,-0.128
19,GACGGGAC,-0.125
2,CATCTTCC,0.0831

# Further entries

row,Sequence,PBM E-score
1,ACACACTA,-0.0687
2,CGGAGAGA,0.185
3,CAGGATGG,-0.115
4,TAGCGATA,-0.0205
5,AGGCGAAA,-0.031
6,AACCATGA,0.0716
7,CAGGTTAC,-0.131
8,ATTATGCA,-0.0522
9,CCGGGAAA,0.35
10,AAAGCATG,-0.0668
11,GGGAGGGA,-0.105
12,GATTTGGA,0.0599
13,CATAAATC,0.0811
14,GAGTAACA,0.211
15,AGTGGACC,-0.274
16,AATGGGGC,-0.352
17,ATGTCCGA,0.231
18,CGATTTAA,0.166
19,CATTAAAC,0.0982
20,CTGTAACC,0.0184
21,CAGGGATG,-0.128
22,GCTCTCCC,-0.232

row,Sequence,PBM E-score
1,AAAATATT,0.0702
2,CGCCAGCG,0.026
3,TTGTGAAA,0.0648
4,ACATGATC,0.073
5,AAGGTTTA,-0.147
6,GCAAAGGA,0.0463
7,ACATACCC,-0.0199
8,ATCAACTA,0.178
9,GAATTGCC,0.108
10,ATATTCCC,0.176
11,AAAGCAGA,-0.0147
12,GACCAACC,-0.211
13,CAAGAGGA,-0.0179
14,AAGGGTCA,-0.204
15,ATCTTCTA,0.0751
16,ACGGAAGC,0.274
17,CACCCTGC,-0.179
18,GCATTCCC,-0.182
19,TACCTCAA,-0.122
20,GGGAGCTA,-0.172
